In publication PMC10570296:
Results are given in words; binding and its absence hold for the method and conditions named. In cells and extracts the contact can be indirect. Some entries that bind do so weakly or less than the wild type. For part of these data: Where a sequence is shown, tags or fusion partners need not be part of it.

Protein sequences, listed by entry. Tags and fused reporters are not part of them.
UniProt O75151: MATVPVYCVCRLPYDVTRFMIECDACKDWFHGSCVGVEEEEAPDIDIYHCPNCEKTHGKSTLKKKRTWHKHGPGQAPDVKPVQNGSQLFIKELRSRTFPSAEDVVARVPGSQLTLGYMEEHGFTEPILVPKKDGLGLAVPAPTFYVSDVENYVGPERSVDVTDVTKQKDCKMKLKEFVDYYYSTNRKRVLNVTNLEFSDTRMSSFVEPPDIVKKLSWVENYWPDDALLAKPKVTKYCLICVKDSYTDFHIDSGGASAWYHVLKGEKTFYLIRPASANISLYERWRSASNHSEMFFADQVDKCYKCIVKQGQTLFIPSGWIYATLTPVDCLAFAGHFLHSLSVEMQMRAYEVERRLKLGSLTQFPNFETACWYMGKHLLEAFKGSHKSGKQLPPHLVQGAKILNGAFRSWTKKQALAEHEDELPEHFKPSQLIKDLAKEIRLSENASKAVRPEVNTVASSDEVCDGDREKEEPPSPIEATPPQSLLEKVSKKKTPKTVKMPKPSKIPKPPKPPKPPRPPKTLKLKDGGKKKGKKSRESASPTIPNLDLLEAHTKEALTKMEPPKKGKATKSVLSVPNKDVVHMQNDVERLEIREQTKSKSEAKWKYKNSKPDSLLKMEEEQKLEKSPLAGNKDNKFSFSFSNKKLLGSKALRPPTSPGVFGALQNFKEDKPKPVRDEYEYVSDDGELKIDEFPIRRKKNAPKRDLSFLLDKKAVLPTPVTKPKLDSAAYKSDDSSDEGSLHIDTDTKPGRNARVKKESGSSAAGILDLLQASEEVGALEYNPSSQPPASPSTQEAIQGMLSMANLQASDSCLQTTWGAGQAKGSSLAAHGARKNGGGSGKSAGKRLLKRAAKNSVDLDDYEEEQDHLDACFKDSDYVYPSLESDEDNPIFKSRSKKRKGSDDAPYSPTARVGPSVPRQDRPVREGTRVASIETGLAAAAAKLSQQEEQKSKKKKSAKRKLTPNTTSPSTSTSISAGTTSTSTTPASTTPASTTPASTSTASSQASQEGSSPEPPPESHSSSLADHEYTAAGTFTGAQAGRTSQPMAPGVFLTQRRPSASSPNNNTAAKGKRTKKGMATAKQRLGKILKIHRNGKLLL

Tests used:
[1] = biological target: T1, SREBP1c-bHLH (256–362 amino acids), Flag/SBP-tagged (rat) (UniProt P56720); assay: pull-down; Flag/SBP-tagged segments purified on streptavidin (SA) affinity beads from lysates of transfected HepG2 or 293T cells after MG132 for 8 h; immunoblotting
T1 sequence: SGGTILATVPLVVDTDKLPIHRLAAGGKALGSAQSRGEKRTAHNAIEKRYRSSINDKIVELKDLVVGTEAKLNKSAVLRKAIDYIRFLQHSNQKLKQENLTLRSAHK

[2] = biological target: T2, endogenous SREBP1c (sterol regulatory element-binding protein 1c) (human (endogenous in HepG2)) (UniProt P36956); assay: co-IP; Supplementary Fig. 10c, d; legend not shown; immunoprecipitation from cell lysates as in the methods (50 mM Tris-Cl, 100 mM NaCl, 1% NP-40, 5 mM EDTA)
T2 sequence: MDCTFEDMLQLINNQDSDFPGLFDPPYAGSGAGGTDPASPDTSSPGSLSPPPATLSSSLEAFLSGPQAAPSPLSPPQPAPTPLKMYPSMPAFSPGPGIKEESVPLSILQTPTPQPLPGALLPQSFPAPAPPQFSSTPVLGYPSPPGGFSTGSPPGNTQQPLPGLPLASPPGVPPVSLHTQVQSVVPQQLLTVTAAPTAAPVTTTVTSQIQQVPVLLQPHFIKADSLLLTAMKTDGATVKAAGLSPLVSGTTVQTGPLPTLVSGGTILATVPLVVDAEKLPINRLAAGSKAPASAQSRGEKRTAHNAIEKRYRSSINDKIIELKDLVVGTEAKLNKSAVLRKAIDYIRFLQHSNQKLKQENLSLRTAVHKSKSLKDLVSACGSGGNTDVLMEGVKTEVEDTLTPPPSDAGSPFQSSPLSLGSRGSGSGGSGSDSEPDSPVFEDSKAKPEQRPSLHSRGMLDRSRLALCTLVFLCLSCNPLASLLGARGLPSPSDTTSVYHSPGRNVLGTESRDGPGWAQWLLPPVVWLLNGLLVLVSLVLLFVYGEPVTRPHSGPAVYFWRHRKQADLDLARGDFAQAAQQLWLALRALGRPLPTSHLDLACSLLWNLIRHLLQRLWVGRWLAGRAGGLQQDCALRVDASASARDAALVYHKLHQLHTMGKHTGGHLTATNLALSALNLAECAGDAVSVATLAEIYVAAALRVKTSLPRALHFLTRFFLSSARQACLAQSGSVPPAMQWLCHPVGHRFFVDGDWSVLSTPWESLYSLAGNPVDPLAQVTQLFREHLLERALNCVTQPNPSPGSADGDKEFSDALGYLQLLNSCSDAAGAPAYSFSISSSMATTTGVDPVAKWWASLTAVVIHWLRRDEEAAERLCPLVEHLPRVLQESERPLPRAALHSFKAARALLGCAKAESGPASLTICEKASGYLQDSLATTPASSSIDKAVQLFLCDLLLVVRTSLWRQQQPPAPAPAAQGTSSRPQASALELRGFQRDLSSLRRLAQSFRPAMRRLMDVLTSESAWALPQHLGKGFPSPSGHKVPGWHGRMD

[3] = biological target: T3, Flag-tagged rat SREBP1c, amino-terminal fragment (1–403 amino acids) (rat) (UniProt P56720); assay: as above
T3 sequence: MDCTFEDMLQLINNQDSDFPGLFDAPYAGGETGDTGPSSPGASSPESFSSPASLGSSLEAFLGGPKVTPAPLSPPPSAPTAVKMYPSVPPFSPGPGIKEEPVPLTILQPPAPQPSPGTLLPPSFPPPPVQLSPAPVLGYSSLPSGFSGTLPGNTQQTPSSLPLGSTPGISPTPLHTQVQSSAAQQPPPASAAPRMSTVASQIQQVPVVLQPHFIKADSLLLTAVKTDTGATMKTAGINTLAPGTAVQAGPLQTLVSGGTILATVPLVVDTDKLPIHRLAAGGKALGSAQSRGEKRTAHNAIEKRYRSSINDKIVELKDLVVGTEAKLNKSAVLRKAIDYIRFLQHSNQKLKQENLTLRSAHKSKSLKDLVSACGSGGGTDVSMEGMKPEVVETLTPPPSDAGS

Measured: binding

PHF2 (as used in the SREBP1c interaction experiments) (from UniProt O75151 1-1096)
binds: all assays above
